The target of this assay is T1, MIIP fused with Streptavidin tag (S) and FLAG tag (F), pcDNA3.1(+) (UniProt Q5JXC2).
T1 sequence: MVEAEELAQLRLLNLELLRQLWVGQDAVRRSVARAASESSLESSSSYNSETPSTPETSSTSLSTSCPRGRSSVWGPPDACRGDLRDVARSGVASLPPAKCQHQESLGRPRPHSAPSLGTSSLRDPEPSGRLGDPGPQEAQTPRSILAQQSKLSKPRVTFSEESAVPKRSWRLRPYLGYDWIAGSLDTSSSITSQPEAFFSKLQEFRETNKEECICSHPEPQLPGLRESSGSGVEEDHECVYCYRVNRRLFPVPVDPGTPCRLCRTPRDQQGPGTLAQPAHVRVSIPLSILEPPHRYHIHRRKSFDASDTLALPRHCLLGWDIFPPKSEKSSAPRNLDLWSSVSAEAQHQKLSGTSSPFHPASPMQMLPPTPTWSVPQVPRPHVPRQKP
Nature of the assay: affinity purification with mass spectrometry.

Chains of the proteins cited; added tags and fusions are not shown. Residues count along the entry.
UniProt P25311, residues 21-298: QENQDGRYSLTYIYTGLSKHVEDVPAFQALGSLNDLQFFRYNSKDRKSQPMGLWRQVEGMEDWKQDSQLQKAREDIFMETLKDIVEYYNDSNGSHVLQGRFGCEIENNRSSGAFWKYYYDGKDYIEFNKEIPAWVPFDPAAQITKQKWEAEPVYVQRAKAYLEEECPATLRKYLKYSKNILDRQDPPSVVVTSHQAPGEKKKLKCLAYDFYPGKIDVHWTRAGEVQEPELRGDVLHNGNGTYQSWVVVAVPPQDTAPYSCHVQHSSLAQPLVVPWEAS

These are yes or no findings as the source states them, for the method shown. In cells and extracts the contact can be indirect. A yes stands for co-enrichment or nearness to the bait. Other partners may have been found. Tags and fused reporters may be left off the sequences shown.

With “alpha-2-glycoprotein 1, zinc-binding (AZGP1), endogenous (from UniProt P25311 21-298)”, the binding entry is “binds”.

These data come from publication doi:10.1101/2023.01.28.526013.
